Measured values from article PMC6189217.

Target: T1, FLAG-PPARγ^WT (peroxisome proliferator-activated receptor gamma), stably expressed in PPARγ-null MEFs, P37238
T1 chain: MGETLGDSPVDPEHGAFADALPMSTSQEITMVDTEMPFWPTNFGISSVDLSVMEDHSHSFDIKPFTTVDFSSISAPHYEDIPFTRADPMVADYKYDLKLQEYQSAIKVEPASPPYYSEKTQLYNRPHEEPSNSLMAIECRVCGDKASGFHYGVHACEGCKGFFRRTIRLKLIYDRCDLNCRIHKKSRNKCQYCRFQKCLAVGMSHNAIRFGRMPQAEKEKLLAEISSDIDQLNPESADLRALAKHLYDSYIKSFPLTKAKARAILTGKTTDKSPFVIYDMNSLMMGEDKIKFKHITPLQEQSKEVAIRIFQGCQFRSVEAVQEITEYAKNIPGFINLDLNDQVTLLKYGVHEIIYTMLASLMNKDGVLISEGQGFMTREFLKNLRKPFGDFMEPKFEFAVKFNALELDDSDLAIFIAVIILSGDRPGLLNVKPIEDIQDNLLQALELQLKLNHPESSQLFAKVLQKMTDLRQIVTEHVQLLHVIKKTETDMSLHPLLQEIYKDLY
Experiment: affinity purification with mass spectrometry; nuclear extracts of PPARγ-null MEFs stably expressing FLAG-PPARγ^WT on FLAG M2 agarose, eluted with FLAG peptide; SDS-PAGE bands excised, trypsin, LC-MS/MS
Details: remark: other sources report otherwise

binding: binds
B1: TRIM25 (tripartite motif-containing 25), endogenous in MEF nuclear extract, Q61510 1-634 (protein)
chain: MAELNPLAEELSCSVCLELFKEPVTTPCGHNFCMSCLDETWVVQGPPYRCPQCRKVYQVRPQLQKNTVMCAVVEQFLQAEQARTPVDDWTPPARFSASSAATQVACDHCLTEIAVKTCLVCMASFCQEHLRPHFDSPAFQDHPLQSPIRDLLRRKCTQHNRLRELFCPEHGECICHICLVEHKTCSPTTLSQASADLEYKLRNKLTIMHSHINGATKALEDVRSKQQCVQDSMKRKMEQLRQEYMEMKAVIDAAETSSLRKLKEEEKRVYGKFDTIYQVLVKKKSEMQKLKAEVELIMDKGDEFEFLEKAAKLQGESTKPVYIPKIDLDHDLIMGIYQGAADLKSELKHSIKKLQKKSEEHNGSGNKGDQTQSTFKPVQPSKKTIQEKKTKKTPVAPGPPSHFSPNKLPTFGAPGQSLDSKATSPDAAPKASAAQPDSVGVKAKVLENFLTKSRTELLEYFVKVIFDYNTAHNKVSLSNKYTTASVSDGLQHYRSHPQRFTYCSQVLGLHCYKNGIHYWEVELQKNNFCGVGICYGSMERQGPESRLGRNPNSWCVEWFNNKISAWHNNVEKTLPSTKATRVGVLLNCDHGFVIFFAVTEKVHLMYKFKVDFTEALYPAFWVFSAGTTLSICSK

Results are given in words; binding and its absence hold for the method and conditions named. Binding seen in cells or lysates may run through a third protein. A yes stands for co-enrichment or nearness to the bait. Other partners may have been found. Where a sequence is shown, tags or fusion partners need not be part of it.
